{"sequences": {"note": "The chains behind the UniProt entries cited, without tags or fusion partners. Where a name states a change or a piece, a line headed by the entry shows the natural chain unless it says otherwise. Residues count along the entry.", "UniProt O75581, residues 21-630": "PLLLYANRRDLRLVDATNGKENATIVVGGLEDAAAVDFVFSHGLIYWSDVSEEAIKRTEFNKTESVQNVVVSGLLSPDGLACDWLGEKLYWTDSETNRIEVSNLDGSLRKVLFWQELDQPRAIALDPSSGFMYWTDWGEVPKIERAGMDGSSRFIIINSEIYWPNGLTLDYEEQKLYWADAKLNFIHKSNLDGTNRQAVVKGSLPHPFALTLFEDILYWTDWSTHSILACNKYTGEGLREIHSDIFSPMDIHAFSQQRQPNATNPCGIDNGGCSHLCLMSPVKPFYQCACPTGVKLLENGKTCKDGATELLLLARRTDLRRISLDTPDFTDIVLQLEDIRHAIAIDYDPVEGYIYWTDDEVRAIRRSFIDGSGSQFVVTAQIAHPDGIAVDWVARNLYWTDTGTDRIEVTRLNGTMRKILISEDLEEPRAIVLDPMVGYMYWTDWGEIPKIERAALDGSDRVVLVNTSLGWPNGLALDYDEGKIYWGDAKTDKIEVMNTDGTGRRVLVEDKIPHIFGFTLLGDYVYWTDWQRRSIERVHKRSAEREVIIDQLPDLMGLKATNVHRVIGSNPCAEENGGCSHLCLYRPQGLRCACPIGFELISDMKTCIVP", "UniProt Q9BQB4": "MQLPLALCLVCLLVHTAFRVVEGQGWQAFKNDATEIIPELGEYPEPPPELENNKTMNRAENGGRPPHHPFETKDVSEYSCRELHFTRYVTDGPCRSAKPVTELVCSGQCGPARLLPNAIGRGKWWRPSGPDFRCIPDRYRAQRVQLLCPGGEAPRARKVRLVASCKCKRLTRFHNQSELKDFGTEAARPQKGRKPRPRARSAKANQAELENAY"}, "source": "paper PMC7585440", "key": {"[1]": {"target": "human LRP6 E1E2 with a C-terminal 10× His tag, labeled with the dye NT-647 (human) (UniProt O75581)", "test": "MST; LRP6 E1E2 or E1 labeled with NT-647 at ~5 nM, unlabeled SOST proteins or peptides titrated; 20 mM Tris-Cl pH 7.0, 200 mM NaCl, 0.5 mg/ml BSA, 0.05% Tween 20; 22 °C; Monolith NT.115 Pico; both purified"}, "[2]": {"target": "human LRP6 E1E2 (P21–P630) with a C-terminal 10× His tag (human) (UniProt O75581)", "test": "crystal structure; LRP6 E1E2–SOST_(tr177) complex co-expressed and co-purified; crystals at 298 K in 0.1 M HEPES pH 7.2, 0.15 M magnesium acetate, 80 mM sodium citrate, 10% PEG 8000; 3.8 Å; two copies of a 1:1 complex in the asymmetric unit; both purified"}}, "note": "No constants are given. Whether binding was seen depends on the method and setting. Some entries that bind do so weakly or less than the wild type.", "data": [{"substance": "SOSTtr178 with an N-terminal His6-SUMO tag (from UniProt Q9BQB4 24-178) (domain or fragment)", "values": [{"measurement": "binding", "setting": "[1]", "result": "binds"}]}, {"substance": "human SOST_(tr177) (Q24-S177) (from UniProt Q9BQB4 24-177) (domain or fragment)", "values": [{"measurement": "binding", "setting": "[2]", "result": "binds"}]}]}
